Experimental data published in paper PMC7862700.
The entries are a selection whose mix differs from that of the whole data set. At the low end of the ranking, values are background and their order means little.

Protein sequences, listed by entry. Tags and fused reporters are not part of them. Lines headed by an entry give the natural chain unless they say otherwise; changes in a name come on top.
UniProt Q9Y603: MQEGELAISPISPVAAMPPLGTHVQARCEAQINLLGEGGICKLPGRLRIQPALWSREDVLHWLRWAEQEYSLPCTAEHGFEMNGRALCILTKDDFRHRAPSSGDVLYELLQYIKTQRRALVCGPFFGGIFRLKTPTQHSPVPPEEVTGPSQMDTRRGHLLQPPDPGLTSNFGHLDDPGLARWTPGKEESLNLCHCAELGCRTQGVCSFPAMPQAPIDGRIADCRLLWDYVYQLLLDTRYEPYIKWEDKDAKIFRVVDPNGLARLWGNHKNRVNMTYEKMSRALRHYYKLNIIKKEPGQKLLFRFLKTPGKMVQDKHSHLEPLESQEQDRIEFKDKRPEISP
UniProt P41212: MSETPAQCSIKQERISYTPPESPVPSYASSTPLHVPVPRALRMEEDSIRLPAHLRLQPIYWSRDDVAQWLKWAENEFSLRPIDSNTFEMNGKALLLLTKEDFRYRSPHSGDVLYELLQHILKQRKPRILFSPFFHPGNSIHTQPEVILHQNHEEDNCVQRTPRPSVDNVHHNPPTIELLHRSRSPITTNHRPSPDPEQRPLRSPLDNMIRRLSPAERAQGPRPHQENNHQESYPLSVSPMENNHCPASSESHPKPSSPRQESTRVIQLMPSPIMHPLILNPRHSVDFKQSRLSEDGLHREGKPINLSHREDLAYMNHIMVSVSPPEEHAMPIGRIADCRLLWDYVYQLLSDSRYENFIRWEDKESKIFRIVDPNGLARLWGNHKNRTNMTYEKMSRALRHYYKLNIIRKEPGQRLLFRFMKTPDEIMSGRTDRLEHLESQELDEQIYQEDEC

target: T1, ELF3 (UniProt P78545); assay: DAPPL (digital affinity profiling via proximity ligation, sequencing); conditions: 10 mM Tris-HCl pH 7.5, 50 mM NaCl, 1 mM DTT, 4% glycerol, room temperature, 30 min; GST-TFs on glutathione beads, 16-mer random dsDNA library, 0.1% …; high values mean tight binding; double strand, one strand shown; scale: fold enrichment (6-mer frequency, TF over GST control)
T1 sequence: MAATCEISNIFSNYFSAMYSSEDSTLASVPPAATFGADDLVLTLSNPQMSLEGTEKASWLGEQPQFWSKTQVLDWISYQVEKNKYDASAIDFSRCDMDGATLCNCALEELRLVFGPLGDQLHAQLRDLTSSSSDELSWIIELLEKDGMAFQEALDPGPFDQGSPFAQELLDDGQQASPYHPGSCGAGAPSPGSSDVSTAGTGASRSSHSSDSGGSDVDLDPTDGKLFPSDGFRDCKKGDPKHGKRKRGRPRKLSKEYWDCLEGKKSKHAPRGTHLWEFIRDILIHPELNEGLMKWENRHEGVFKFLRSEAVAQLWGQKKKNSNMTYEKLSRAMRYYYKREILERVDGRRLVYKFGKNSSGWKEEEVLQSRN

Sequence	binding signal
TGTAGA	0.868
TAAGAC	0.869
GATTTG	0.884
ATCAGA	0.922
GTATTG	0.939
GGGTAT	0.937
TTGAGA	0.834
TGGTGG	0.922
GACCCA	0.899
GTTGAA	0.847
TCGCGT	0.905
CCAAAG	0.843
AGGAAT	0.915
CCCGCG	0.887
TGGCGT	0.878
AGTTAC	0.969
GTAGCG	0.833
AGCAGA	0.927
GCCGCA	0.981
CTAGAC	0.975

Sequence	binding signal
TAAGAG	0.944
TGATAG	0.918
GCCTGT	0.83
TGTCAG	0.978
GTTTCT	1.2
TGAAGG	0.994
GCGCAC	0.862
TGGCGC	0.977
CGGATC	0.943
GAAGCC	0.836
TTGGGA	0.887
TTAGTC	0.813
CCAACA	1.06
CCGTAT	0.943
CATCAG	0.909
GACTGC	0.793
GCCTGG	0.939
GTGCCG	0.932
AGCCAC	1.06
TGAAAG	0.94

target: ETV7 (UniProt Q9Y603); assay: as above; conditions: 10 mM Tris-HCl pH 7.5, 50 mM NaCl, 1 mM DTT, 4% glycerol, room temperature, 30 min; GST-TFs on glutathione beads, 16-mer random dsDNA library, 0.1% …; high values mean tight binding; double strand, one strand shown; scale: fold enrichment (6-mer frequency, TF over GST control)

Sequence	binding signal
TGTAGA	0.973
TAAGAC	0.881
GATTTG	1.15
ATCAGA	0.908
GTATTG	0.981
GGGTAT	1.02
TTGAGA	0.807
TGGTGG	1.09
GACCCA	0.854
GTTGAA	0.946
TCGCGT	0.997
CCAAAG	0.919
AGGAAT	0.822
CCCGCG	1.03
TGGCGT	0.973
AGTTAC	0.98
GTAGCG	0.855
AGCAGA	0.962
GCCGCA	0.991
CTAGAC	0.88

Sequence	binding signal
TAAGAG	0.944
TGATAG	0.999
GCCTGT	0.977
TGTCAG	0.963
GTTTCT	1.38
TGAAGG	0.934
GCGCAC	0.987
TGGCGC	0.846
CGGATC	0.946
GAAGCC	1.12
TTGGGA	0.956
TTAGTC	0.747
CCAACA	1.05
CCGTAT	1.09
CATCAG	0.985
GACTGC	0.967
GCCTGG	0.939
GTGCCG	0.91
AGCCAC	0.915
TGAAAG	0.98

target: ETV6 (UniProt P41212); assay: as above; conditions: 10 mM Tris-HCl pH 7.5, 50 mM NaCl, 1 mM DTT, 4% glycerol, room temperature, 30 min; GST-TFs on glutathione beads, 16-mer random dsDNA library, 0.1% …; high values mean tight binding; double strand, one strand shown; scale: fold enrichment (6-mer frequency, TF over GST control)

Sequence	binding signal
TGTAGA	0.902
TAAGAC	0.857
GATTTG	1.09
ATCAGA	0.959
GTATTG	0.99
GGGTAT	0.886
TTGAGA	0.855
TGGTGG	0.912
GACCCA	0.867
GTTGAA	0.799
TCGCGT	0.938
CCAAAG	0.836
AGGAAT	0.808
CCCGCG	0.907
TGGCGT	0.889
AGTTAC	0.985
GTAGCG	0.977
AGCAGA	0.917
GCCGCA	0.984
CTAGAC	0.924

Sequence	binding signal
TAAGAG	0.91
TGATAG	0.994
GCCTGT	0.87
TGTCAG	0.863
GTTTCT	1.28
TGAAGG	0.94
GCGCAC	0.948
TGGCGC	0.916
CGGATC	0.954
GAAGCC	1.09
TTGGGA	0.854
TTAGTC	0.766
CCAACA	0.966
CCGTAT	1.24
CATCAG	0.867
GACTGC	0.897
GCCTGG	0.939
GTGCCG	0.966
AGCCAC	0.926
TGAAAG	0.958
